# Laboratory results: PubChem BioAssay AID2551 (National Center for Advancing Translational Sciences (NCATS), 2010)
# By UniProt entry, the sequences of proteins in these tests, tags left out. Where a name states a change or a piece, a line headed by the entry shows the natural chain unless it says otherwise.
# UniProt P51450: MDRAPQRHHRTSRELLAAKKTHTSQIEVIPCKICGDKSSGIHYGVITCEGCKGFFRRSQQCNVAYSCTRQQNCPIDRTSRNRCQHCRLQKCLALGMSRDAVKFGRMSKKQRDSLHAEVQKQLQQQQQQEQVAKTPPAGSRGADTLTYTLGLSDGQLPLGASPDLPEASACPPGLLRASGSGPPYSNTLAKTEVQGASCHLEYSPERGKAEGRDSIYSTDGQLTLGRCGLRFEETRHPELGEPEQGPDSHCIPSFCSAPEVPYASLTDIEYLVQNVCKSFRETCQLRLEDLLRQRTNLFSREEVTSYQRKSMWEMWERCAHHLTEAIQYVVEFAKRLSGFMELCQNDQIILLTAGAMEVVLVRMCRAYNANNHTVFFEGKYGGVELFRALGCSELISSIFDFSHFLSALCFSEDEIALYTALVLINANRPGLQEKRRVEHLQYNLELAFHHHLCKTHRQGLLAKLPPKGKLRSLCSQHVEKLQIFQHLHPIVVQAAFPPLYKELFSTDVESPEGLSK
# Hit rate of the full screen: of about 310,000 compounds, about 17,000 (5.5%) were called active. Inconclusive results, whose numbers are uncertain, are shown with a selection of clear calls. The call rests on the fitted dose curve; in most records, active means well fitted inhibition curve with a large enough effect; inconclusive means small, poorly fitted or top-dose-only effect, or effect the other way; inactive means no such curve, though single readings can be large or run the other way. A potency beside an inconclusive call is a rough fit, not a confirmed value.
# Biological target: Nuclear receptor ROR-gamma (Mus musculus) (UniProt P51450)
# Assay: qHTS for inhibitors of ROR gamma transcriptional activity; further: nearly all actives have a fitted effect of over 60% in size
# Settings: Drosophila S2 Gal4-RORgamma UAS-luciferase reporter, 20 h; activity change, negative = inhibition: at 53.6 µM (top of the series)
# Summary of the method: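 Drosophila Schneider cells stably carrying a metallothionein-driven Gal4 DBD–ROR gamma fusion and a UAS-Photinus luciferase reporter were exposed to compound for 1 hr, then induced with copper sulfate (700 uM final) for 20 hr at ambient temperature before luminescence reading.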
# On the % scale 0 is the no-effect control and ±100 the full control effect; potency means the concentration at half of the fitted maximal effect.
Compound,"activity change, negative = inhibition",Potency
O/N=C(\c1ccc(Cl)cc1)c1ncc(C(F)(F)F)cc1Cl,inactive: 5.15%,
CCOC(=O)c1c(C)oc2c1c(C(c1cccnc1)N1CCCCC1)c(O)c1ccccc12 (stereo not drawn),,"inconclusive: 22.4 µM [inhibitor, single point]"
COc1cc(-c2noc(C)c2-c2ccc3[nH]ccc3c2)cc(OC)c1OC,,"inconclusive: 7.94 µM [inhibitor, partial curve, poor fit]"
COc1ccc2[nH]c(O)c(N=NC(=O)Cc3cccs3)c2c1,inactive: 17%,
Cc1ccccc1NC(=S)NC(=O)/C=C/c1ccco1,,"inconclusive: 22.4 µM [inhibitor, single point]"
COc1ccc(C2=NS(=O)(=O)N(C)C(C(=O)NCc3ccc4c(c3)OCO4)=C2)cc1OC,inactive: -23.3%,
COc1ccc(S(=O)(=O)N2CC=C(C(=O)NC3CCCC3)CC2)cc1,inactive: 11.3%,
O=C(NNC(=S)NCc1ccco1)c1ccc(Cl)s1,,active: 1.78 µM
Cc1ccc(C(=O)COC(=O)C(C)N2C(=O)C3C4C=CC(C4)C3C2=O)cc1 (stereo not drawn),,"inconclusive: 12.6 µM [activator, single point]"
COc1cc2c(cc1O)CCC1C2CC[C@@]2(C)C1CC[C@@H]2O (stereo partly drawn),inactive: -21.5%,
Cc1c(OCC(=O)C(C)(C)C)ccc2c(-c3ccccc3)cc(=O)oc12,,"inconclusive: 12.6 µM [activator, partial curve]"
COc1ccc(NS(=O)(=O)c2ccc3c(c2)NC(=O)CCS3)cc1Cl,,"inconclusive: 10 µM [activator, partial curve]"
CCN(c1ccccc1)S(=O)(=O)c1ccc(N)c(OC)c1,inactive: 25.6%,
CCCCNS(=O)(=O)c1ccc2nc(-c3cccnc3)cc(C(=O)NC(C)CC)c2c1 (stereo not drawn),,"inconclusive: 12.6 µM [activator, single point]"
CCOc1c(Br)cc(CNC2CCCCCCC2)cc1OC,,"inconclusive: 22.4 µM [inhibitor, single point]"
Cc1ccc(NC(=O)COC(=O)c2ccc3c(c2)NC(=O)C2CCCN32)cc1 (stereo not drawn),inactive: 14.8%,
O=C1C2C(C(=O)N1CCN1CCN(Cc3ccc([N+](=O)[O-])cc3)CC1)[C@H]1C=C[C@@H]2C1 (stereo partly drawn),,"inconclusive: 31.6 µM [activator, single point]"
NCCCC(=O)N1c2ccccc2Sc2ccc(Cl)cc21,inactive: 0.991%,
CC1=C/C(=C/N(C)c2ccccc2)C(=O)S1,inactive: 5.07%,
CCOC(=O)[C@@H]1[C@H]2COc3ccccc3[C@@H]2N2C(=O)N(c3ccc(F)cc3)C(=O)[C@@]12C,,active: 12.6 µM
O=C(NC(=S)Nc1ccc(N2CCOCC2)cc1)c1cccs1,,active: 2.82 µM
CCCN(CCC)CCCNC(=O)c1cn(CC)c2ccc(S(=O)(=O)N3CCc4ccccc4C3)cc2c1=O,inactive: -9.39%,
Cc1cc(N/N=C/c2cccc(Cl)c2)nc(NCc2ccccc2)n1,,"inconclusive: 20 µM [inhibitor, single point]"
CCCN(CC(=O)Nc1ccccc1C)C(=O)c1ccc(COc2ccccc2)cc1,,"inconclusive: 0.158 µM [inhibitor, full curve, poor fit]"

Compound,"activity change, negative = inhibition",Potency
CN(CCCNC(=O)c1cn(C)c2ccc(S(=O)(=O)N(C)C)cc2c1=O)c1ccccc1,inactive: 28.6%,
CCCCn1c2ccc(F)cc2c2nnc(SCCN3CCOCC3)nc21,,"inconclusive: 12.6 µM [inhibitor, partial curve]"
CCN(Cc1ccccc1)c1ccc(N=Nc2nn(C)c(C)c2[N+](=O)[O-])cc1,,"inconclusive: 35.5 µM [inhibitor, single point]"
O=C(Cn1cnc(S(=O)(=O)N2CCCCC2)c1)NCc1ccco1,inactive: 3.37%,
CCOC(=O)c1cnc2c(C)cccc2c1Nc1ccc(N2CCOCC2)cc1,inactive: 39.8%,
COc1ccc(C(O)Cn2cc([N+](=O)[O-])nc2C)cc1 (stereo not drawn),inactive: 16.6%,
CCOc1cccc(C(=O)NC(=S)Nc2ccc3c(c2)OCCO3)c1,,active: 7.94 µM
CC/C(=N\NC(=O)c1c[nH]c2ccccc12)c1cccs1,,"inconclusive: 35.5 µM [inhibitor, single point]"
CN(C)C(=O)c1ccc(-c2nc(-n3ccnc3)c3ccccc3n2)cc1,,"inconclusive: 8.91 µM [inhibitor, partial curve, poor fit]"
Cc1ccc(-c2cc(=O)c3cc(C)ccc3[nH]2)cc1,,active: 10 µM
COc1ccccc1NS(=O)(=O)c1cccc(C(=O)NN=C2CCCC2)c1,inactive: -24.6%,
COc1ccc(C(=O)CC(Nc2ccc([N+](=O)[O-])cc2)c2ccc(Cl)cc2)cc1 (stereo not drawn),,"inconclusive: 4.47 µM [activator, partial curve, poor fit]"
CC(C)(C)OC(=O)NCCCC[C@H](NC(=O)c1nc[nH]c1C(=O)NCc1ccc(CNC(=O)OC(C)(C)C)cc1)C(=O)OC(C)(C)C,,"inconclusive: 35.5 µM [inhibitor, single point]"
COC(=O)c1c(NC(=S)Nc2ccccc2Cl)sc(C)c1C,,active: 2.82 µM
CC(SCc1ccccc1)C(=O)NN=C1CCN(C)CC1 (stereo not drawn),,active: 7.08 µM
COc1ccc2ccccc2c1/C=N/NC(=S)Nc1cc(S(=O)(=O)N2CCOCC2)ccc1N1CCOCC1,,active: 2.82 µM
COc1cccc(-n2nnnc2SCC(=O)Nc2ccc3c(c2)OCCO3)c1,,"inconclusive: 35.5 µM [inhibitor, single point]"
CC1CCN(C(=O)c2cc(-c3ccc4c(c3)OCO4)on2)CC1,,"inconclusive: 10 µM [inhibitor, single point]"
Cc1c(C(=O)Nc2ccccn2)oc2ccccc12,,"inconclusive: 22.4 µM [inhibitor, single point]"
Oc1ccc(N=Nc2n[nH]c(-c3ccccc3)n2)cc1,,"inconclusive: 12.6 µM [inhibitor, partial curve]"
Oc1c(N=NC(=S)Nc2ccccc2F)c2ccccc2n1Cc1ccc(F)cc1,,active: 2.82 µM
c1cncc(CNc2nc(-c3ccoc3)nc3ccccc23)c1,inactive: 4.24%,
Cc1ccccc1NC(=O)/C=C1\SC(=O)NC1=O,,"inconclusive: 22.4 µM [inhibitor, single point]"
CS(=O)(=O)Nc1cccc(-c2nc(Nc3ccncc3)c3ccccc3n2)c1,,"inconclusive: 20 µM [inhibitor, single point]"

# In the list so far, two contain a tert-butyl group.
Compound,"activity change, negative = inhibition",Potency
Cc1c(OCC(=O)C(C)(C)C)ccc2c(-c3ccccc3)cc(=O)oc12,,"inconclusive: 12.6 µM [activator, partial curve]"
CC(C)(C)OC(=O)NCCCC[C@H](NC(=O)c1nc[nH]c1C(=O)NCc1ccc(CNC(=O)OC(C)(C)C)cc1)C(=O)OC(C)(C)C,,"inconclusive: 35.5 µM [inhibitor, single point]"
